The values below come from the supplement of paper PMC10849652.

The chains behind the UniProt entries cited, without tags or fusion partners. Where a name states a change or a piece, a line headed by the entry shows the natural chain unless it says otherwise.
UniProt Q9Y4G2: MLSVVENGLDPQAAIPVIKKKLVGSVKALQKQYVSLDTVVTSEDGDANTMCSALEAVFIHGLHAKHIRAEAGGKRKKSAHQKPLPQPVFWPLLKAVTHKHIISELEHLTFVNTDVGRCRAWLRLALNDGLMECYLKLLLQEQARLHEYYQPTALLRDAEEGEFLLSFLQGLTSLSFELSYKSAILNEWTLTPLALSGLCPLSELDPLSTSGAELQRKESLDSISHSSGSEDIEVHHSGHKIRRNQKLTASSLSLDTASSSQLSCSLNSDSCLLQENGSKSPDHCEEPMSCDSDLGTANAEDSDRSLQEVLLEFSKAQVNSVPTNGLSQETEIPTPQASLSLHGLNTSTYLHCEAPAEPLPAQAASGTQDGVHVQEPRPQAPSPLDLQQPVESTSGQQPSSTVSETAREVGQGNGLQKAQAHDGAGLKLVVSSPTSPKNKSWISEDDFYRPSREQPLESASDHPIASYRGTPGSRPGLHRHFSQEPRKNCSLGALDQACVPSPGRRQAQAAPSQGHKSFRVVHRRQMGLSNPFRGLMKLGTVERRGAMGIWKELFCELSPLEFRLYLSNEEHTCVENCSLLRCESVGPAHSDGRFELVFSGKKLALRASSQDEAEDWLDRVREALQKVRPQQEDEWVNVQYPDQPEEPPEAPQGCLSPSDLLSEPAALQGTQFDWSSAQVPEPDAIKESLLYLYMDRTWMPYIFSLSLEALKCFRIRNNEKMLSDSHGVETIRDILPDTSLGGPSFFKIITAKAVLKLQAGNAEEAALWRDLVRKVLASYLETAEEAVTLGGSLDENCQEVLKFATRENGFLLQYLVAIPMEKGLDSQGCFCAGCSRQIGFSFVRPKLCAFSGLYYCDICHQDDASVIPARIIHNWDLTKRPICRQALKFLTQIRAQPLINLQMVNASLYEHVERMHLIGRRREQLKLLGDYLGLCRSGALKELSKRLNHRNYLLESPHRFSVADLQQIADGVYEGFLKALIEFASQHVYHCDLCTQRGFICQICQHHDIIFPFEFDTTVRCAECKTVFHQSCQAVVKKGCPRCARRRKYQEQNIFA
UniProt P00491: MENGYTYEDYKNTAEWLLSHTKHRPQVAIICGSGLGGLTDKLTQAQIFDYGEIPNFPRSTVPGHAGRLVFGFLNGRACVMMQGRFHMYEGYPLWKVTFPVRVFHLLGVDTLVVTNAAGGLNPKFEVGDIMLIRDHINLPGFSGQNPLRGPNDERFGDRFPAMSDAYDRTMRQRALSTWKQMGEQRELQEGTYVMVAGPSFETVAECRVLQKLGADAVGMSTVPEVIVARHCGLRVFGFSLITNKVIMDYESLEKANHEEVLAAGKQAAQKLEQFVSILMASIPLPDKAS
UniProt Q7Z4H8: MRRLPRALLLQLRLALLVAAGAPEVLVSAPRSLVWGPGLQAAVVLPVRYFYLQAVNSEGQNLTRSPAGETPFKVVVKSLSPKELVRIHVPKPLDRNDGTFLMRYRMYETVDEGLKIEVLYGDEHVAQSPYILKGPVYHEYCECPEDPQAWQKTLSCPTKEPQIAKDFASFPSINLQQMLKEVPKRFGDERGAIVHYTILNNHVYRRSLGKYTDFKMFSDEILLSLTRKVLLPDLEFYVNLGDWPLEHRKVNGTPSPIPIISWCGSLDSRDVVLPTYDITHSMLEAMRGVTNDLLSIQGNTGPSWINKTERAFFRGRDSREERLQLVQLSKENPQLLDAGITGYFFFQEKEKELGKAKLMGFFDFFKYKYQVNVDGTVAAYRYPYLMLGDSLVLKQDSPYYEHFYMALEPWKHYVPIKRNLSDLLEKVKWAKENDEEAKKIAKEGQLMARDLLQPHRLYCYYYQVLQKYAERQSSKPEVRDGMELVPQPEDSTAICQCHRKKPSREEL
UniProt Q9BY77: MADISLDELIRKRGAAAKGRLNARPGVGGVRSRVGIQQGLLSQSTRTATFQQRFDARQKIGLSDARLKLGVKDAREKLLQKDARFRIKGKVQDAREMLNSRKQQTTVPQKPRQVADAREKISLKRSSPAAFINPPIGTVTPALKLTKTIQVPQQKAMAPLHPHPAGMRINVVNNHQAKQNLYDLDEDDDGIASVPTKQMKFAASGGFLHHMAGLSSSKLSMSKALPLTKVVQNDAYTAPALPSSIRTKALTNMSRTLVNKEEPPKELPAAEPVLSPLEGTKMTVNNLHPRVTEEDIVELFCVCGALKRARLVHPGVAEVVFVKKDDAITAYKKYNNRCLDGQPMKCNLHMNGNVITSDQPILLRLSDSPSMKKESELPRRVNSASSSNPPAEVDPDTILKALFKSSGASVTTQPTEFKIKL
UniProt P51805: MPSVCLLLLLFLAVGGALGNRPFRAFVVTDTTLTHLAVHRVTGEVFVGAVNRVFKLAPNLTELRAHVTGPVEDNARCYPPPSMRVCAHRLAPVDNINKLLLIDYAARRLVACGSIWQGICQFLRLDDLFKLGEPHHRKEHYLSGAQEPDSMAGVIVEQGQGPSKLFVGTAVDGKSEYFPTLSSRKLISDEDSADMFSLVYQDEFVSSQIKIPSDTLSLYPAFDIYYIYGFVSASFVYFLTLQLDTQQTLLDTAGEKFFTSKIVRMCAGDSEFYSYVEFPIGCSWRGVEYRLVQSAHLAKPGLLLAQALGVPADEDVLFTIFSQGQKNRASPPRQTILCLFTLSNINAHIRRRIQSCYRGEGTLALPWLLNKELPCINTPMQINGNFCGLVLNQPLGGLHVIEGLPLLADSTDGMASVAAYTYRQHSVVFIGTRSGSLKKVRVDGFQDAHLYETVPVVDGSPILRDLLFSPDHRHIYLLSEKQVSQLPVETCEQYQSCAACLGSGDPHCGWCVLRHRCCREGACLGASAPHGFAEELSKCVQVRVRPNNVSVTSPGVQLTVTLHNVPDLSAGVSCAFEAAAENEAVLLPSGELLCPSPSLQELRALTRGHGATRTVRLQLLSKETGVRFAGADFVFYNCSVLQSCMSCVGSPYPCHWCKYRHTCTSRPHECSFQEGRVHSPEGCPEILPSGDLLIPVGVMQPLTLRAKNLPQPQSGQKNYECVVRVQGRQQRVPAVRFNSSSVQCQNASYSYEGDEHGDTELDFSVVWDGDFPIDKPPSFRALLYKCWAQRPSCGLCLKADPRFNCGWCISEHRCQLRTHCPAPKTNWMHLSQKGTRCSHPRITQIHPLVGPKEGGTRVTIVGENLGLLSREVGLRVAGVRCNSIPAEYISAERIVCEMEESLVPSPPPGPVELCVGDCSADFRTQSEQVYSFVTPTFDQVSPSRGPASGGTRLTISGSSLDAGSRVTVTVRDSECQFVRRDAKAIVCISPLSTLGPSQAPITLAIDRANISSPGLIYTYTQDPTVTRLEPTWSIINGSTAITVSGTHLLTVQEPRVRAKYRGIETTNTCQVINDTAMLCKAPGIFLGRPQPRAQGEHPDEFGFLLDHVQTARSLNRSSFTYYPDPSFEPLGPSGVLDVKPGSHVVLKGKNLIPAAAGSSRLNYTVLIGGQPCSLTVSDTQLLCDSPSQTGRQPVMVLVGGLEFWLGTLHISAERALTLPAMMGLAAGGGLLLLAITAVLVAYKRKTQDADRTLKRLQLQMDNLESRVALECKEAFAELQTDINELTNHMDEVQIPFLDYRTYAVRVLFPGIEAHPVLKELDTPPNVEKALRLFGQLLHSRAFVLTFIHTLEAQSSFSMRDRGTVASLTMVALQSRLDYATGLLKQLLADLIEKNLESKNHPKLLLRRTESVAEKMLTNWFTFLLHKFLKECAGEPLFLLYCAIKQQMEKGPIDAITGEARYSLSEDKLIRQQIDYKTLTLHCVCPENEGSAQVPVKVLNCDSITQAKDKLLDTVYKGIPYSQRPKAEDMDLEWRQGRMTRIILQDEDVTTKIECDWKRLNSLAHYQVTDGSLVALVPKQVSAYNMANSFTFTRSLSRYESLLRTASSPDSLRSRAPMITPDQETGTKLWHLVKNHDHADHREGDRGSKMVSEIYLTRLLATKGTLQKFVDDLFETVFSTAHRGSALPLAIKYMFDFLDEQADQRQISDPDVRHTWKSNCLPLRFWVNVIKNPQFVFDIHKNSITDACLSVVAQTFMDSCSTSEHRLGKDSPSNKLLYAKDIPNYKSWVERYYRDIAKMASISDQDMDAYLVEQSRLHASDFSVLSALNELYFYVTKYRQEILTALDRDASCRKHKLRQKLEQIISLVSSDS
UniProt A5A3E0, whole entry, looked up: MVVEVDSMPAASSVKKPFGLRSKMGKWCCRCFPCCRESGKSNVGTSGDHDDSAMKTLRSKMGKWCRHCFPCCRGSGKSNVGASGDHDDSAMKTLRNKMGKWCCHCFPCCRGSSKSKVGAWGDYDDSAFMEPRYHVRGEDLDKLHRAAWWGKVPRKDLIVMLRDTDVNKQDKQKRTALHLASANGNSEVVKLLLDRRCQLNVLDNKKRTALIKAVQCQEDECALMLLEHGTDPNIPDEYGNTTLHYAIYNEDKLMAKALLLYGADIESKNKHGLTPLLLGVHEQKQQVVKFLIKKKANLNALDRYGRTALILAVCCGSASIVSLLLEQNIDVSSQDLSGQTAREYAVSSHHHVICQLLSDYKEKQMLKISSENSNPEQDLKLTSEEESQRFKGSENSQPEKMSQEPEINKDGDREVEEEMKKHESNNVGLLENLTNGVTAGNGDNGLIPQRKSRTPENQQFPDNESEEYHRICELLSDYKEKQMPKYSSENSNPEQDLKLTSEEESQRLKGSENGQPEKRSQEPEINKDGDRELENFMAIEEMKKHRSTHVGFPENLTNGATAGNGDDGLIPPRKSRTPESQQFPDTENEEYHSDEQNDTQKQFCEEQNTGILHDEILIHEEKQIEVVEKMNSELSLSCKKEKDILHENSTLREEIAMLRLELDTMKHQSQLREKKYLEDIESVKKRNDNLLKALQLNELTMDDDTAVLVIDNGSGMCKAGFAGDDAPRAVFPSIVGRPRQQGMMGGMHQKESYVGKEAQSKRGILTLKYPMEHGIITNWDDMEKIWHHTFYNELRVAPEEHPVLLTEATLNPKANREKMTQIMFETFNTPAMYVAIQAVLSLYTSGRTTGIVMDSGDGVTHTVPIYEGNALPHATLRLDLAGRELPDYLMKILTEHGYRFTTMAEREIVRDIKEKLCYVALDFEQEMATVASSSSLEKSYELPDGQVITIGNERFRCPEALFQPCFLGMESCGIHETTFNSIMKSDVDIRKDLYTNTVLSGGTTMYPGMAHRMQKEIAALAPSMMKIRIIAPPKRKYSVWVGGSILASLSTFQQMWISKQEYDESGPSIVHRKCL
UniProt Q6UW63: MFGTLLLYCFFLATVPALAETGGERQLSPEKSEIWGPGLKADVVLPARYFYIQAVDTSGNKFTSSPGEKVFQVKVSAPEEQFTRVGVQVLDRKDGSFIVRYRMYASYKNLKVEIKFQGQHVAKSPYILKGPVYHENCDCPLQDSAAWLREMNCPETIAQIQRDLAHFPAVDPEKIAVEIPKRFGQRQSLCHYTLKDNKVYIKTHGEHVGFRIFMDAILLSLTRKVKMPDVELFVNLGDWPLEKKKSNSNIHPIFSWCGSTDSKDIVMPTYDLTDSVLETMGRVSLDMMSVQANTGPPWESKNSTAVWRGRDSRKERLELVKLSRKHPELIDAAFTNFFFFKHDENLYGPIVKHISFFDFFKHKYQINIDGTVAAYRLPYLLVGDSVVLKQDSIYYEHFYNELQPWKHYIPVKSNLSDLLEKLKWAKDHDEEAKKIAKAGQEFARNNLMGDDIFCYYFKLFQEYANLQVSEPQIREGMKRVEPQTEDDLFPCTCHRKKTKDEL
UniProt Q9NRX1: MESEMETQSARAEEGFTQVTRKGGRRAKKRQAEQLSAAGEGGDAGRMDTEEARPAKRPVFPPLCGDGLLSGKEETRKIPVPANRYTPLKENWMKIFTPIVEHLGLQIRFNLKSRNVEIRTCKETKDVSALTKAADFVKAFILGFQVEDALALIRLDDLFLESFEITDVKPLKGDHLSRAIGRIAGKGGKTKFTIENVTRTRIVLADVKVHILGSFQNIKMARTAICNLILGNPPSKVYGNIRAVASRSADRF

What all share (assay): log2 fold change, soluble protein after heating vs DMSO (PISA); higher = thermal stabilisation; K562 lysate, 10 uM; active = over 0.2 and 3.5 SD of the protein, either way, in both replicates (recomputed)
Compound in assay [1]: NCC(=O)Nc1ccc(-n2nc(C(F)(F)F)cc2-c2ccc3c(ccc4ccccc43)c2)cc1
The procedure, abridged:
(§1)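 Dounce homogenisation of K562 pellets in PBS pH 7.4 with 1 mM MgCl2 produced a crude extract, used at 1 mg/mL protein. Exposure to 10 μM compound lasted 30 min, and aliquots were then heated for 3 min across 48°C-58°C, pooled and brought to 0.5% NP-40 at 4°C. The supernatant after 21,000xg for 90 min was quantified by TMTpro 16plex LC-MS/MS with channel sums equalised. Duplicate values are given as log-two fold change in thermal stability relative to solvent controls.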

Compound in the next assay: O=C(CCCCCCC(=O)Nc1ccccc1)NO [vorinostat]
The procedure, abridged: as §1

Compound in a further assay: O=C(O)c1ccc2c(c1)nc(Nc1cccc(Cl)c1)c1ccncc12 [silmitasertib]
The procedure, abridged:
as §1

Compound in assay [2]: O=C1NC(=O)C(c2cnc3ccccn23)=C1c1cn2c3c(cc(F)cc13)CN(C(=O)N1CCCCC1)CC2
The procedure, abridged:
as §1

Compound in another assay: c1cn2cc(-c3ccc4cn[nH]c4c3)nc(Nc3ccc(N4CCOCC4)cc3)c2n1 [entospletinib]
The procedure, abridged:
as §1

The other results are listed elsewhere or left out.

Consider PLPP6 (UniProt Q8IY26), for which the log2 fold change is inactive: -0.064 in assay [1], inactive: -0.102 with vorinostat, inactive: -0.022 with silmitasertib and inactive: -0.194 in assay [2].

PLEKHM1 (UniProt Q9Y4G2): the log2 fold change in assay [1] is inactive: -0.096; with vorinostat, inactive: -0.104; in the assay with silmitasertib, inactive: -0.096; in assay [2], inactive: 0.009; in the assay with entospletinib it was inactive: -0.125.

On to PNP (UniProt P00491), for which the log2 fold change in assay [1] was inactive: -0.01; with vorinostat, inactive: 0.13; with silmitasertib it was inactive: -0.021; in assay [2] it was inactive: -0.031; with entospletinib it was inactive: -0.009.

POGLUT3 (UniProt Q7Z4H8): the log2 fold change in assay [1] was inactive: 0.058; in the assay with vorinostat, inactive: 0.117; with silmitasertib it was inactive: -0.049; in assay [2], inactive: -0.02; with entospletinib it was inactive: -0.021.

Regarding PLXNB2 (UniProt O15031), the log2 fold change in assay [1] is inactive: 0.003; with vorinostat it was inactive: 0.033; with silmitasertib, inactive: 0.001; in assay [2] it was inactive: 0.019; with entospletinib, inactive: -0.03.

On to PNKP (UniProt Q96T60), for which the log2 fold change is inactive: 0.062 in assay [1]; inactive: 0.08 with vorinostat; inactive: -0.277 with silmitasertib; inactive: -0.042 in assay [2]; inactive: -0.011 in the assay with entospletinib.

Turning to PPAN isoform 3 (UniProt Q9NQ55), the log2 fold change in assay [1] was inactive: 0; with vorinostat, inactive: 0.076; in the assay with silmitasertib, inactive: -0.039; in assay [2], inactive: 0.021; in the assay with entospletinib, inactive: 0.039.

As to PMPCB (UniProt O75439), the log2 fold change in assay [1] was inactive: 0.01; in the assay with vorinostat, inactive: 0.115; in the assay with silmitasertib it was inactive: -0.002; in assay [2] it was inactive: -0.033; in the assay with entospletinib it was inactive: -0.042.

For the target PNISR (UniProt Q8TF01), the log2 fold change in assay [1] was inactive: 0.028; in the assay with vorinostat, inactive: 0.121; in the assay with silmitasertib, inactive: -0.022; in assay [2], inactive: -0.035; with entospletinib, inactive: 0.004.

For POMK (UniProt Q9H5K3), the log2 fold change in assay [1] was inactive: -0.067; with vorinostat, inactive: 0.079; with silmitasertib, inactive: 0.016; in assay [2] it was inactive: 0.02; with entospletinib it was inactive: -0.004.

On to POLDIP3 (UniProt Q9BY77), for which the log2 fold change in assay [1] is inactive: 0.161; with vorinostat, inactive: -0.09; with silmitasertib, inactive: -0.006; in assay [2], inactive: -0.007.

As for PLXNA3 (UniProt P51805), the log2 fold change in assay [1] is inactive: 0.126; in the assay with vorinostat, inactive: 0.009; with silmitasertib, inactive: -0.088; in assay [2] it was inactive: 0.118; in the assay with entospletinib, inactive: -0.068.

PPFIA3 (UniProt O75145): the log2 fold change in assay [1] was inactive: -0.119; with vorinostat, inactive: 0.017; with silmitasertib, inactive: 0.025.

For POLR3GL (UniProt Q9BT43), the log2 fold change is inactive: -0.01 in assay [1]; inactive: 0.117 in the assay with vorinostat; inactive: 0.025 in the assay with silmitasertib; inactive: 0.033 in assay [2]; inactive: -0.012 with entospletinib.

On to PLTP (UniProt P55058), for which the log2 fold change in assay [1] is inactive: 0.093; with vorinostat it was inactive: 0.103; with silmitasertib, inactive: -0.069.

As for POTEF (UniProt A5A3E0), the log2 fold change is inactive: 0.048 in assay [1]; inactive: -0.073 with vorinostat; inactive: -0.048 in the assay with silmitasertib; inactive: 0.072 in assay [2]; inactive: -0.023 with entospletinib.

In the case of POLA2 (UniProt Q14181), the log2 fold change was inactive: -0.006 in assay [1]; inactive: -0.089 with vorinostat; inactive: 0.007 with silmitasertib; inactive: 0 in assay [2]; inactive: 0.016 in the assay with entospletinib.

Turning to PMS2 (UniProt P54278), the log2 fold change was inactive: 0.064 in assay [1]; active: -0.384 with vorinostat; inactive: 0.026 in the assay with silmitasertib; inactive: 0.027 in assay [2]; inactive: 0.001 in the assay with entospletinib.

Turning to PPHLN1 isoform 3 (UniProt Q8NEY8), the log2 fold change in assay [1] is inactive: -0.271.

For the target POLR2I (UniProt P36954), the log2 fold change in assay [1] was inactive: -0.092; with vorinostat, inactive: 0.122; in the assay with silmitasertib, inactive: 0.101; in assay [2], inactive: 0.009.

Turning to PPFIA2 (UniProt O75334), the log2 fold change in assay [1] is inactive: 0.05; in the assay with vorinostat, inactive: -0.053; with silmitasertib, inactive: -0.074; in assay [2] it was inactive: 0.069; with entospletinib, inactive: -0.036.

Consider POGLUT2 (UniProt Q6UW63), for which the log2 fold change in assay [1] is inactive: -0.032; in the assay with vorinostat it was inactive: 0.06; in the assay with silmitasertib it was inactive: 0.02; in assay [2] it was inactive: -0.018; with entospletinib, inactive: -0.011.

With POMGNT2 (UniProt Q8NAT1), the log2 fold change was inactive: -0.105 in assay [1]; inactive: 0.005 in the assay with vorinostat; inactive: 0.024 with silmitasertib; inactive: -0.013 in assay [2]; inactive: 0.013 with entospletinib.

With PPIC (UniProt P45877), the log2 fold change is inactive: 0.12 in assay [1], inactive: 0.044 with vorinostat, inactive: 0.021 with silmitasertib and inactive: 0.262 in assay [2].

Consider PNO1 (UniProt Q9NRX1), for which the log2 fold change was inactive: 0 in assay [1]; inactive: -0.143 with vorinostat; inactive: 0.05 with silmitasertib; inactive: 0.052 in assay [2]; inactive: 0.011 in the assay with entospletinib.

For POLRMT (UniProt O00411), the log2 fold change in assay [1] was inactive: -0.01; with vorinostat, inactive: -0.056; with silmitasertib, inactive: -0.032; in assay [2], inactive: 0.071; with entospletinib it was inactive: -0.004.
